The chains behind the UniProt entries cited, without tags or fusion partners. Where a name states a change or a piece, a line headed by the entry shows the natural chain unless it says otherwise.
UniProt O94782: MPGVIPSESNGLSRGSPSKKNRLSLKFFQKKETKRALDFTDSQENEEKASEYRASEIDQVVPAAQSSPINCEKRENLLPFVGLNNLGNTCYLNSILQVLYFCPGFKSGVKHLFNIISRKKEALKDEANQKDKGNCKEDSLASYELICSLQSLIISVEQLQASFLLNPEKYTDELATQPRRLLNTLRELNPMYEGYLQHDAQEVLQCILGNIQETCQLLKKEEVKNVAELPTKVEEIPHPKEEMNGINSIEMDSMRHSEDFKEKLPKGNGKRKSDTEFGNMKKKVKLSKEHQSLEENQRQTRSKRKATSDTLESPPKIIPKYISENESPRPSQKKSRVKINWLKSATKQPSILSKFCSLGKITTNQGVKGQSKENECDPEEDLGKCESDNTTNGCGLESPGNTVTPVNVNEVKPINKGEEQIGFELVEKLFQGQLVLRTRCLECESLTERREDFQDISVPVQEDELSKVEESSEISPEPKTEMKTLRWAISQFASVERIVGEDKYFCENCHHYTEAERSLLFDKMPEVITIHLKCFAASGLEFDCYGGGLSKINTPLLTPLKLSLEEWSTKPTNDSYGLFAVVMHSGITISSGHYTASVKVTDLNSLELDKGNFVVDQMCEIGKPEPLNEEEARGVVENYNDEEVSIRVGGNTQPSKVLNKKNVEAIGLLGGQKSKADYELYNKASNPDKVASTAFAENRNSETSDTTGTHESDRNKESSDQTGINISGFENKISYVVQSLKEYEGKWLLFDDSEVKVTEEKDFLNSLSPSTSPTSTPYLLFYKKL

The whole screen tested about 390,000 compounds, of which about 910 (0.23%) were called active. The inconclusive results got no clear call from the source; some entries with a clear call stand among them for comparison. The call rests on the fitted dose curve; in most records, active means well fitted inhibition curve with a large enough effect; inconclusive means small, poorly fitted or top-dose-only effect; inactive means no such curve, though single readings can be large or run the other way. Where the call is inconclusive, the potency comes from a doubtful curve fit.
These molecules were tested against Ubiquitin carboxyl-terminal hydrolase 1 (Homo sapiens) (UniProt O94782) (assay: Inhibitors of USP1/UAF1: Primary Screen). Details: recombinant USP1/UAF1, Ub-Rhodamine cleavage fluorescence; series mostly up to 57.1 µM.
Outline: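 In this screen, compounds sit with the deubiquitinase complex (1nM) for 15 min at room temperature before Ub-Rho is added at 150nM final. Fluorescence rise is then followed for 6 reads every 60 seconds.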
In the case of `COc1ccc2nc(N(Cc3cccnc3)C(C)=O)sc2c1`, the Potency is reported as inconclusive: 2.82 µM [inhibitor, full curve, poor fit].
In the case of `O=[N+]([O-])c1cc(Cl)cc(/C=N/NC(=S)Nc2ccc(S(=O)(=O)N3CCOCC3)cc2)c1O`, the Potency is reported as inconclusive: 39.8 µM [inhibitor, partial curve].
With `Oc1ccc(/C(Cc2ccc3ccccc3n2)=N\Nc2ccccc2)c(O)c1` the Potency was inconclusive: 10 µM [inhibitor, partial curve].
`Cc1c[n+]([O-])ccc1[N+](=O)[O-]` was tested, and the Potency was inconclusive: 15.8 µM [inhibitor, partial curve, poor fit].
In the case of `COc1ccc(S(=O)(=O)NCCc2nnc3ccc(SCC(=O)Nc4ccccc4C)nn23)cc1`, the Potency is reported as inconclusive: 1.26 µM [inhibitor, full curve].
For `COc1ccc(-c2ccc(-c3noc(-c4ccccc4OC)n3)c(OC)n2)cc1`, the Potency was inconclusive: 22.4 µM [inhibitor, partial curve].
With `CCN(CC)S(=O)(=O)c1ccc(-c2nnc(SCc3nnc(-c4ccccc4)o3)o2)cc1` the Potency was inconclusive: 22.4 µM [inhibitor, single point].
For `Cc1ccc(N(C(=O)c2cc3ccccc3oc2=O)C2C=CS(=O)(=O)C2)cc1` (configuration not stated), the Potency was “inactive”.
With `COC(=O)c1c(C)oc2ccc(N(C(=O)c3ccncc3)S(=O)(=O)c3ccc(OC)cc3)cc12` the Potency was inconclusive: 0.891 µM [inhibitor, full curve, poor fit].
With `COC(=O)C1Cc2ccccc2CN1S(=O)(=O)c1ccc(F)cc1` (configuration not stated) the Potency was “inactive”.
In the case of `COc1cc(/C=N/N=C2/C(=O)Nc3ccccc32)ccc1O`, the Potency is reported as “inactive”.
With `COc1cc2cnc(-c3ccccc3)cc2cc1OC` the Potency was inconclusive: 50.1 µM [inhibitor, partial curve, poor fit].
For `COc1ccc(Cn2nnnc2CN(Cc2cc3cc(C)ccc3[nH]c2=O)C2CCCC2)cc1`, the Potency was inconclusive: 0.501 µM [inhibitor, partial curve, poor fit].
In the case of `CCOC(=O)[C@@H]1[C@H]2COc3ccc(Br)cc3[C@@H]2N2C(=O)N(c3ccc(C)cc3)C(=O)[C@]12C`, the Potency is reported as inconclusive: 44.7 µM [inhibitor, partial curve, poor fit].
In the case of `COc1ccc(-c2nc3sc(CCNC(=O)c4ccco4)c(C)n3n2)cc1`, the Potency is reported as inconclusive: 39.8 µM [inhibitor, partial curve, poor fit].
For `COC(=O)c1cc2c(n1S(=O)(=O)c1ccc(C)cc1)C(=O)C(=O)c1[nH]cc(C(=O)OCc3ccccc3)c1-2`, the Potency was inconclusive: 6.31 µM [inhibitor, partial curve].
For `COc1cccc(CN2CCN(C(=O)c3ccc(-c4ccccc4)cc3)CC2)c1OC`, the Potency was inconclusive: 7.94 µM [inhibitor, full curve, poor fit].
For `O=[N+]([O-])c1ccc2c(c1)N([O-])C1(CCCCC1)[N+]2=O`, the Potency was inconclusive: 44.7 µM [inhibitor, partial curve, poor fit].
With `Cc1ccc2c(c1)c(C)c(C)n2CC(O)Cn1nc(C)c(Br)c1C` (configuration not stated) the Potency was inconclusive: 39.8 µM [inhibitor, partial curve].
For `Cc1cc(O)c(C=Nc2cccc(Cl)c2)c(=O)o1`, the Potency was inconclusive: 39.8 µM [inhibitor, partial curve].
`Cc1ccc(NC(=O)CC2Oc3ccccc3NC2=O)cc1C` (configuration not stated) was tested, and the Potency was inconclusive: 0.282 µM [inhibitor, full curve].
With `Oc1ccc(Cl)cc1-c1cc(-c2ccco2)[nH]n1` the Potency was inconclusive: 35.5 µM [inhibitor, partial curve].
With `CCN1Cc2c(/C=C/c3ccccc3)nc3ccc(OC)cc3c2N(c2cccc(Cl)c2)C1` the Potency was “inactive”.
For `CCN(c1ccccc1)c1nc(C#N)nc(N(CC)c2ccccc2)n1`, the Potency was “inactive”.
In the case of `Oc1ccc(/C=N/Nc2ccnc3cc(Cl)ccc23)c(O)c1O`, the Potency is reported as inconclusive: 20 µM [inhibitor, partial curve].
In the case of `C#CCOCCOCCOCCNc1nc(N2CCN(C(=O)[C@H](CCCCN)n3cc(CN)nn3)CC2)nc(N2CCN(C(=O)[C@H](CCCN=C(N)N)n3cc(C(N)[C@H](C)CC)nn3)CC2)n1` (some centres not stated), the Potency is reported as inconclusive: 44.7 µM [inhibitor, partial curve, poor fit].
`Cc1cc(C)c2ccc(NN)nc2c1O` was tested, and the Potency was inconclusive: 50.1 µM [inhibitor, partial curve, poor fit].
With `CC1=C(C(=O)NCc2ccccc2F)C2(CCCCC2)OC1=O` the Potency was “inactive”.
`Cc1ccc(C(=O)Cc2ccccc2)o1` was tested, and the Potency was inconclusive: 100 µM [inhibitor, partial curve, poor fit].
For `O=[N+]([O-])c1cc(-c2ncccn2)c([N+](=O)[O-])s1`, the Potency was inconclusive: 3.55 µM [inhibitor, full curve].
For `C=C[C@@]1(C)CCC(/C(C)=C/C=C/C(C)(C)O)C[C@@H]1C(=C)C` (some centres not stated), the Potency was inconclusive: 50.1 µM [inhibitor, partial curve, poor fit].
In the case of `CCCN1C(=O)C(=O)c2cc(C)ccc21`, the Potency is reported as inconclusive: 35.5 µM [inhibitor, partial curve].
`CC/C=C\C/C=C\C/C=C\CCCCCCCC(=O)O` was tested, and the Potency was “inactive”.
`O=C/C(=C\Nc1ccc(S(=O)(=O)CCO)cc1)c1nc2cc(Cl)ccc2o1` was tested, and the Potency was inconclusive: 17.8 µM [inhibitor, partial curve].
`Cc1cc(C)cc(-n2ccnc2SCC(=O)O)c1` was tested, and the Potency was “inactive”.
With `CN(C)CCCNc1cc(N2CCN(C3CCCCC3)CC2)c2noc3c2c1C(=O)c1ccccc1-3` the Potency was inconclusive: 31.6 µM [inhibitor, partial curve, poor fit].
For `Cc1cc(Cl)c2oc(C(=O)N3CCN(c4cccc(C)n4)CC3)c(C)c2c1`, the Potency was “inactive”.
In the case of `O=C(CSc1nc2ccccc2c(=O)n1Cc1ccc(F)cc1)NCc1cccs1`, the Potency is reported as inconclusive: 7.94 µM [inhibitor, partial curve, poor fit].
With `COc1ccc(C(C)=O)cc1COC(=O)Cc1cc(OC)c(OC)c(OC)c1` the Potency was inconclusive: 56.2 µM [inhibitor, partial curve, poor fit].
`O=C(Nc1cccc(Cl)c1)C1C2C=CC3(O2)C1C(=O)N(CCCN1CCCCC1)C3C(=O)NC1CCCCC1` (configuration not stated) was tested, and the Potency was inconclusive: 0.251 µM [inhibitor, full curve, poor fit].
With `Cc1ccc(S(=O)(=O)c2nnn3c2nc(NCc2ccc4c(c2)OCO4)c2sccc23)cc1C` the Potency was inconclusive: 39.8 µM [inhibitor, partial curve, poor fit].
In the case of `CC(C)(C)OC(=O)N(CCc1ccccc1)Cc1ccc(OCc2cccc(NC(=O)c3ccccc3)c2)cc1`, the Potency is reported as “inactive”.
With `CCOC(=O)c1c(NC(C)=O)sc2c1CCC(C=NCCCN(CC)CC)=C2Sc1ccccc1` the Potency was inconclusive: 31.6 µM [inhibitor, partial curve].
With `O=C(CN(C(=O)CCC(=O)Nc1nccs1)c1ccc(F)c(Cl)c1)NCC1CCCO1` (configuration not stated) the Potency was “inactive”.
For `O=C(NCc1cccc(Cl)c1)C1CCCN(c2nn3cc(-c4ccc(F)cc4)nc3s2)C1` (configuration not stated), the Potency was inconclusive: 5.62 µM [inhibitor, partial curve].
In the case of `COc1ccccc1NC(=O)Cn1c(=O)oc2cc(S(=O)(=O)NCc3ccccc3)ccc21`, the Potency is reported as inconclusive: 56.2 µM [inhibitor, partial curve, poor fit].
With `COc1ccc(-c2csc(NC3CCCCC3)n2)c(OC)c1` the Potency was inconclusive: 3.55 µM [inhibitor, partial curve].
For `COc1ccc(Nc2nc(N)c([N+](=O)[O-])c(N3CCN(C)CC3)n2)cc1`, the Potency was “inactive”.
With `Cc1cccc(N2CCN(Cc3nnc(-c4cccc(Br)c4)o3)CC2)c1C` the Potency was inconclusive: 8.91 µM [inhibitor, single point].
With `Cc1ccc(CNS(=O)(=O)c2c(C)nc3sc(C)cn3c2=O)cc1` the Potency was inconclusive: 1.12 µM [inhibitor, full curve].
With `COc1ccc([C@H]2CC(=O)C=C(c3ccccc3)C2)cc1OC` the Potency was inconclusive: 0.282 µM [inhibitor, full curve, poor fit].
`COc1ccc(N2CCN(C(=O)c3cnc(N4CCOCC4)c4ccccc34)CC2)cc1` was tested, and the Potency was “inactive”.
For `CC(C)c1ccc(Nc2nc(CC(=O)O)cs2)cc1`, the Potency was “inactive”.
For `c1csc(C2=NNC(=NC3CCCCC3)SC2)c1`, the Potency was inconclusive: 50.1 µM [inhibitor, partial curve, poor fit].
`COc1ccccc1OCc1nc2ccccc2n1Cc1ccccc1` was tested, and the Potency was inconclusive: 0.562 µM [inhibitor, full curve, poor fit].
`CCCCn1c(SCC(=O)c2ccccc2)nc2sc3c(c2c1=O)CCCC3` was tested, and the Potency was inconclusive: 4.47 µM [inhibitor, full curve, poor fit].
For `O=C(O)COc1ccc(/C=C/c2nc(-c3ccccc3O)n[nH]2)cc1`, the Potency was “inactive”.
`CCOc1ccc(S(=O)(=O)c2cc3cccc(OCC)c3oc2=O)cc1` was tested, and the Potency was inconclusive: 44.7 µM [inhibitor, partial curve, poor fit].
For `CCCN1CCN(C(=O)Cn2cnc3sc(C)c(S(=O)(=O)N4CCC(C)CC4)c3c2=O)CC1`, the Potency was inconclusive: 6.31 µM [inhibitor, single point].
With `CCOc1ccc(CNc2cc(C)nc3nc(-c4cccc(C)c4)nn23)cc1OC` the Potency was inconclusive: 35.5 µM [inhibitor, single point].
With `CCc1ccccc1N(C)C(=O)c1nn(-c2ccc(OC)cc2)c(=O)c2c1c1ccccc1n2C` the Potency was inconclusive: 0.282 µM [inhibitor, full curve, poor fit].
In the case of `COc1ccc(OC)c([C@@H]2Nc3ccc(C(=O)O)cc3[C@@H]3C=CC[C@@H]32)c1`, the Potency is reported as inconclusive: 0.355 µM [inhibitor, full curve, poor fit].

From PubChem BioAssay AID743255 (National Center for Advancing Translational Sciences (NCATS), 2014)
Further: nearly all actives have a fitted effect of over 60% in size.
Potency means the concentration at half of the fitted maximal effect.
